Data published in PMC5752956.

Molecular target: EGFP-tagged Merkel cell polyomavirus small tumor antigen (EGFP-ST) (Merkel cell polyomavirus)
Test: co-IP; lysates of HEK-293 cells transfected for 24 h with EGFP-tagged ST constructs incubated with GFP-TRAP agarose beads; pulldowns immunoblotted with PP2A Aβ- and PP4C-specific antibodies (endogenous proteins)

B1: catalytic subunit of protein phosphatase 4 (PP4C) (enzyme, UniProt P60510 1-307)
chain: MAEISDLDRQIEQLRRCELIKESEVKALCAKAREILVEESNVQRVDSPVTVCGDIHGQFYDLKELFRVGGDVPETNYLFMGDFVDRGFYSVETFLLLLALKVRYPDRITLIRGNHESRQITQVYGFYDECLRKYGSVTVWRYCTEIFDYLSLSAIIDGKIFCVHGGLSPSIQTLDQIRTIDRKQEVPHDGPMCDLLWSDPEDTTGWGVSPRGAGYLFGSDVVAQFNAANDIDMICRAHQLVMEGYKWHFNETVLTVWSAPNYCYRCGNVAAILELDEHLQKDFIIFEAAPQETRGIPSKKPVADYFL
binding: binds

No constants are given. Whether binding was seen depends on the method and setting. Binding seen in cells or lysates may run through a third protein. Binding can be weak; no strength is given.
